PubChem BioAssay AID1259425 – University of Nebraska Medical Center – 2018
Shown is one part, drawn at random, of about 14,000 deposited reagents. Further read-outs or replicates are left out here. Not given: the time to read-out.

- Purpose: 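Seek colon cancer weak points whose silencing resembles KSR1 loss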 (primary screen)
- Cell system: HCT116 human colon cancer cells
- Reagents: siRNA pool against human genes, 50 nM siRNA
- Measured: 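After 50 nM siRNA pool, branched-DNA assay measures six marker transcripts per well, minus blank, normalised to the geometric mean of two housekeeping transcripts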
- Direction: BNIP3L mRNA: higher = more BNIP3L transcript after knockdown

| gene | BNIP3L mRNA, set 1 |
| --- | --- |
| NUP98 | 0.138 |
| EYA4 | 0.044 |
| ADGRG7 | 0.355 |
| RBM7 | 0.222 |
| LINC00208 | 0.188 |
| SMYD5 | 0.15 |
| ELOA2 | 0.0955 |
| PCDHGC5 | 0.155 |
| KIAA0492 (retired record) | 0.205 |
| HSD17B6 | 0.0858 |
| TTI2 | 0.0933 |
| TSLIG3A | 0.234 |
| SLC66A2 | 0.103 |
| CELA2B | 0.108 |
| WBSCR23 | 0.181 |
| DKFZp566H0824 (retired record) | 0.0953 |
| FUT8 | 0.114 |
| CRLF3 | 0.09 |
| NCOR1 | 0.108 |
| THSD4 | 0.204 |
| CBL | 0.0512 |
| TCL1B | 0.0701 |
| THBS1 | 0.113 |
| FBXW10 | 0.0716 |
| SH3BP5 | 0.0731 |
| TNFSF18 | 0.0595 |
| EDIL3 | 0.0933 |
| MTHFSD | 0.136 |
| HNRNPAB | 0.0842 |
| CYBRD1 | 0.0545 |
| ATP8B1 | 0.0787 |
| PHF8 | 0.206 |
| CSNK1D | 0.102 |
| BTAF1 | 0.122 |
| TBX19 | 0.157 |
| DOHH | 0.255 |
| NUDC | 0.113 |
| PUS7L | 0.274 |
| CIPC | 0.0794 |
| NEIL1 | 0.213 |
| PEMT | 0.139 |
| LZTFL1 | 0.0971 |
| VPS28 | 0.0842 |
| PCID2 | 0.0521 |
| SUN2 | 0.134 |
| IFRD2 | 0.0916 |
| TRIM48 | 0.0918 |
| HS2ST1 | 0.121 |
| ALB | 0.133 |
| MLH1 | 0.0811 |
| GPATCH2L | 0.117 |
| FZD4 | 0.132 |
| ELOB | 0.579 |
| SIRT7 | 0.0571 |
| NIM1K | 0.0857 |
| ACSM3 | 0.175 |
| TIMP3 | 0.0341 |
| CDC25A | 0.0766 |
| ZNHIT3 | 0.081 |
| RBM19 | 0.0405 |
| OR2H2 | 0.158 |
| PRCC | 0.0918 |
| CRYAA | 0.148 |

Laid out differently: entries from further up.
CYBRD1
- BNIP3L mRNA, set 1: 0.0545

ATP8B1
- BNIP3L mRNA, set 1: 0.0787

PHF8
- BNIP3L mRNA, set 1: 0.206

CSNK1D
- BNIP3L mRNA, set 1: 0.102
